The supplement of paper PMC12542422
± gives the standard deviation of the averaged measurements. The list shows a part of the results. These are raw signals, not scaled to a control.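 HeLa cells imaged for ribosome-assembly readouts (ENP1 staining with or without export block, or inducible tagged ribosomal protein reporters); machine learning classified each cell's signal location against solvent (DMSO) controls. Hits exceeded the DMSO false-positive mean by five standard deviations, then were visually confirmed; three biological replicates.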

Key:
[1] = system: HeLa K (ENP1 immunofluorescence, +LMB); assay: fraction of cells with nucleolar or nucleolar/nucleoplasmic ENP1 signal (MainHitrate); higher = more cells with nucleolar/nuclear readout signal (for ENP1 -LMB: less RNAPI inhibition; for +LMB ENP1 and RP reporters: stronger nuclear/nucleolar retention, i.e. ribosome biogenesis defect); settings: concentration: 1 µM; treatment time: 6 h; ENP1 +LMB; leptomycin B: 20 nM, last 1.5 h
[2] = system: HeLa K (ENP1 immunofluorescence, no LMB); assay: as above; settings: concentration: 1 µM; treatment time: 6 h; ENP1 -LMB; leptomycin B: none
[3] = system: HeLa RPS2-YFP reporter; assay: fraction of reporter-positive cells with nuclear (nucleolar or nucleolar/nucleoplasmic) RPS2-YFP (MainHitrate); higher = more cells with nucleolar/nuclear readout signal (for ENP1 -LMB: less RNAPI inhibition; for +LMB ENP1 and RP reporters: stronger nuclear/nucleolar retention, i.e. ribosome biogenesis defect); settings: concentration: 1 µM; treatment time: 6 h
[4] = system: HeLa RPL29-GFP reporter; assay: fraction of reporter-positive cells with nuclear (nucleolar or nucleolar/nucleoplasmic) RPL29-GFP (MainHitrate); higher = more cells with nucleolar/nuclear readout signal (for ENP1 -LMB: less RNAPI inhibition; for +LMB ENP1 and RP reporters: stronger nuclear/nucleolar retention, i.e. ribosome biogenesis defect); settings: concentration: 1 µM; treatment time: 6 h

SMILES	fraction [1]	fraction [2]	fraction of reporter-positive cells with nuclear [3]	fraction of reporter-positive cells with nuclear [4]
CCCCCN(C)CCC(O)(P(=O)(O)O)P(=O)(O)O [Ibandronate sodium]	0.0636 ± 0.086	0.982 ± 0.031	0.127 ± 0.11	0.208 ± 0.032
OC[C@H]1O[C@H](O[C@]2(CCl)O[C@H](CCl)[C@@H](O)[C@@H]2O)[C@H](O)[C@@H](O)[C@H]1Cl [Sucralose]	0.0983 ± 0.14	0.986 ± 0.025	0.12 ± 0.1	0.221 ± 0.07
CC[C@@H]([C@H](C)O)n1ncn(-c2ccc(N3CCN(c4ccc(OC[C@@H]5CO[C@@](Cn6cncn6)(c6ccc(F)cc6F)C5)cc4)CC3)cc2)c1=O [Posaconazole]	0.0942 ± 0.084	0.9988 ± 0.002	0.146 ± 0.086	0.203 ± 0.06
NS(=O)(=O)c1cc2c(cc1Cl)NCNS2(=O)=O [Hydrochlorothiazide]	0.0664 ± 0.065	0.9975 ± 0.0043	0.122 ± 0.062	0.194 ± 0.06
COc1ccc2cccc(CCNC(C)=O)c2c1 [Agomelatine]	0.081 ± 0.057	0.9984 ± 0.0028	0.116 ± 0.07	0.194 ± 0.073
C[C@H]1C[C@H]2[C@@H]3CCC4=CC(=O)C=C[C@]4(C)[C@@]3(F)[C@@H](O)C[C@]2(C)[C@@]1(O)C(=O)CO [Betamethasone (Celestone)]	0.0857 ± 0.067	0.9988 ± 0.0021	0.123 ± 0.1	0.2 ± 0.023
CN(C)CCCN1c2ccccc2Sc2ccc(Cl)cc21 [Chlorpromazine (Sonazine)]	0.17 ± 0.26	0.99 ± 0.018	0.127 ± 0.1	0.262 ± 0.091
CCC[C@@H]1C[C@@H](C(=O)N[C@@H]([C@H]2O[C@H](SC)[C@H](OP(=O)(O)O)[C@@H](O)[C@H]2O)[C@H](C)Cl)N(C)C1 [Clindamycin phosphate]	0.184 ± 0.28	0.993 ± 0.011	0.112 ± 0.041	0.238 ± 0.078
CC(=O)NS(=O)(=O)c1ccc(NC(=O)c2ccccc2C(=O)O)cc1 [Phthalylsulfacetamide]	0.122 ± 0.13	0.9969 ± 0.0054	0.161 ± 0.15	0.297 ± 0.26
CCN(CC)CCCC(C)Nc1ccnc2cc(Cl)ccc12 (stereo not given) [Chloroquine Phosphate]	0.0472 ± 0.055	0.989 ± 0.019	0.0898 ± 0.068	0.186 ± 0.023
Nc1nc(=O)n([C@@H]2CS[C@H](CO)O2)cc1F [Emtricitabine (Emtriva)]	0.0701 ± 0.031	0.9973 ± 0.0047	0.101 ± 0.076	0.218 ± 0.098
Cn1c(=O)c2[nH]cnc2n(C)c1=O [Aminophylline (Truphylline)]	0.0597 ± 0.053	0.998 ± 0.0034	0.105 ± 0.052	0.235 ± 0.092
OCC(CO)N[C@H]1C[C@](O)(CO)[C@@H](O)[C@H](O)[C@H]1O [Voglibose]	0.121 ± 0.17	0.969 ± 0.054	0.122 ± 0.1	0.195 ± 0.078
O=P(O)(O)C(Cl)(Cl)P(=O)(O)O [Clodronate Disodium]	0.0619 ± 0.088	0.978 ± 0.038	0.128 ± 0.11	0.199 ± 0.1
CCC(=O)O[C@]1(C(=O)CCl)[C@@H](C)C[C@H]2[C@@H]3C[C@H](F)C4=CC(=O)C=C[C@]4(C)[C@@]3(F)[C@@H](O)C[C@@]21C [Halobetasol Propionate]	0.0817 ± 0.11	0.986 ± 0.023	0.138 ± 0.13	0.217 ± 0.061
Cc1onc(-c2c(Cl)cccc2Cl)c1C(=O)N[C@@H]1C(=O)N2[C@@H]1SC(C)(C)[C@@H]2C(=O)O [Dicloxacillin Sodium]	0.107 ± 0.17	0.986 ± 0.024	0.144 ± 0.094	0.247 ± 0.073
O=C(O)CCNC(=O)c1ccccc1 [Betamipron]	0.0865 ± 0.12	0.986 ± 0.024	0.119 ± 0.1	0.216 ± 0.046
COc1cc(C(C)=O)ccc1OCCCN1CCC(c2noc3cc(F)ccc23)CC1 [Iloperidone (Fanapt)]	0.0705 ± 0.067	0.9971 ± 0.0051	0.119 ± 0.09	0.205 ± 0.041
C[C@@H](O)[C@H]1C(=O)N2C(C(=O)O)=C(S[C@@H]3CN[C@H](CNS(N)(=O)=O)C3)[C@H](C)[C@H]12 [Doripenem Hydrate]	0.112 ± 0.098	0.9984 ± 0.0027	0.133 ± 0.078	0.226 ± 0.11
N#C[C@@H]1CCCN1C(=O)CNC12CC3CC(CC(O)(C3)C1)C2 [Vildagliptin (LAF-237)]	0.114 ± 0.14	0.9985 ± 0.0027	0.135 ± 0.099	0.201 ± 0.088
CNC[C@H](O)c1ccc(O)c(O)c1 [Epinephrine bitartrate (Adrenalinium)]	0.147 ± 0.21	0.991 ± 0.015	0.117 ± 0.09	0.214 ± 0.069
Cc1cn([C@H]2C[C@H](N=[N+]=[N-])[C@@H](CO)O2)c(=O)[nH]c1=O [Zidovudine (Retrovir)]	0.0258 ± 0.023	0.985 ± 0.026	0.111 ± 0.11	0.211 ± 0.067
CCCCCCCCOc1ccccc1C(=O)Nc1ccc(C(=O)OCC[N+](C)(CC)CC)cc1 [Otilonium Bromide]	0.161 ± 0.24	0.981 ± 0.033	0.144 ± 0.11	0.224 ± 0.058
COCCCOc1cc(C[C@@H](C[C@H](N)[C@@H](O)C[C@H](C(=O)NCC(C)(C)C(N)=O)C(C)C)C(C)C)ccc1OC [Aliskiren hemifumarate]	0.139 ± 0.2	0.988 ± 0.02	0.0867 ± 0.067	0.25 ± 0.075
CCCCCCCCCC(=O)N[C@@H](Cc1c[nH]c2ccccc12)C(=O)N[C@H](CC(N)=O)C(=O)N[C@@H](CC(=O)O)C(=O)N[C@@H]1C(=O)NCC(=O)N[C@@H](CCCN)C(=O)N[C@@H](CC(=O)O)C(=O)N[C@H](C)C(=O)N[C@@H](CC(=O)O)C(=O)NCC(=O)N[C@H](CO)C(=O)N[C@@H]([C@H](C)CC(=O)O)C(=O)N[C@@H](CC(=O)c2ccccc2N)C(=O)O[C@@H]1C [Daptomycin]	0.0914 ± 0.063	0.998 ± 0.0035	0.121 ± 0.062	0.194 ± 0.069

Single entries from the list:
For fraction [2], `NS(=O)(=O)c1cc2c(cc1Cl)NCNS2(=O)=O` [Hydrochlorothiazide] reads 0.9975 ± 0.0043
For fraction of reporter-positive cells with nuclear [3], `CNC[C@H](O)c1ccc(O)c(O)c1` [Epinephrine bitartrate (Adrenalinium)] reads 0.117 ± 0.09
